Test [1] concerns the target T1, HA-Dzip1 (Drosophila Dzip1) (Drosophila melanogaster) (UniProt Q9VC70).
T1 sequence: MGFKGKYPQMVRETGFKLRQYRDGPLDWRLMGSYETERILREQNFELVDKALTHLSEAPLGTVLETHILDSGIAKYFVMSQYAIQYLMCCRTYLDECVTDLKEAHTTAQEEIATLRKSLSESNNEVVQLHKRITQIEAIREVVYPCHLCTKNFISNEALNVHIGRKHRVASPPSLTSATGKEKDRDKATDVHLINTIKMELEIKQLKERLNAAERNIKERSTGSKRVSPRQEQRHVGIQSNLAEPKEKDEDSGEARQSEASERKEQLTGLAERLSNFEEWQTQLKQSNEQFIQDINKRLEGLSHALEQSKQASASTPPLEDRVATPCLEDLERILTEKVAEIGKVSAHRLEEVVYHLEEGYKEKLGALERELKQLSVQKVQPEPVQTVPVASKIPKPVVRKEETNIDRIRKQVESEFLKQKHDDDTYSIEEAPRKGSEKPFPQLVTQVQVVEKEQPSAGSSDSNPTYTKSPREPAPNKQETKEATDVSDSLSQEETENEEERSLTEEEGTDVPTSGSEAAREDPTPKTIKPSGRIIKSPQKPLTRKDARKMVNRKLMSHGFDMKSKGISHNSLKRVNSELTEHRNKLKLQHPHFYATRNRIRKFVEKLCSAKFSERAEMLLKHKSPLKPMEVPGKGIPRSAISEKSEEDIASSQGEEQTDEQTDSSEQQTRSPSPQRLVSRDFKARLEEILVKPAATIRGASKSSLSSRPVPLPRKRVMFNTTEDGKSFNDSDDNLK
The test is described as follows: co-IP; two tagged Drosophila proteins co-expressed in COS-7 or HEK293 cells; lysates precipitated with GFP-TRAP or HA-coupled beads, 1 or 2 hr at 4°C, NaCl 150 mM, Tris-HCl pH 7.2; western blot with GFP, HA or V5 antibodies.

Test [2] deals with T2, GFP-Dzip1 (Drosophila Dzip1) (Drosophila melanogaster) (UniProt Q9VC70).
T2 sequence: T1 sequence
The test is described as follows: co-IP; GFP-Dzip1, V5-Fam92 and HA-Cby co-expressed together in mammalian cells; precipitated with anti-GFP (performed once); western blot.

For test [3], the target named is Cby-GFP (Drosophila Cby) (Drosophila melanogaster). The test is described as follows: co-IP; two tagged Drosophila proteins co-expressed in COS-7 or HEK293 cells; lysates precipitated with GFP-TRAP or HA-coupled beads, 1 or 2 hr at 4°C, NaCl 150 mM, Tris-HCl pH 7.2; western blot with GFP, HA or V5 antibodies. A general note: In western blotting, separated proteins are transferred to a membrane and probed.

These are yes or no findings as the source states them, for the method shown. In cells and extracts the contact can be indirect. A result given as binding can be weak or reduced; the word gives no strength. Where a sequence is shown, tags or fusion partners need not be part of it.

On to Cby-GFP (Drosophila Cby), for which the binding entry in test [1] is reported as “binds”.

For HA-Cby (Drosophila Cby), the binding entry in test [2] is reported as “binds”.

B1: HA-Fam92 (Drosophila Fam92) (protein, UniProt Q9VK91 1-395)
chain: MFRRGKLSFLNTKDDRVKIINERINITERHLMEMCSSFALVTRKMAKYRDSFDELAKSVKSYADDEEINESLCQGLKSFTNAVTIMGDYMDINVHRLEHKIVNELAQFEQLCKSTRDNLRLAVIARDKEVLRQRQMLELKSKFSANNSAADSELFKAKMEVQRTNKEIDDIIGNFEQRKLRDLKQIISDFILIAMKQHTKALEILSASYYDIGTIDERDDFIEFQKLMKTKEELASRKTALKKGLRSQSMDSLEHEHLVSPLKRRPKLSRSNRNLTGAGINHGSKTEPEDETDEQDEEEDDEDEETEQSGEEDEESGTATDDEREPTQPGNQVPPRENVFGAKIRSASKDIATPSTSASATSAPSKPSRQTVKHPFKAVASTHVRLQKQFHVPQH
In the case of B1, in test [3], the binding result is given as “binds”.

The values are drawn from paper PMC6904220.
